# In the supplement of paper PMC10338343:
# ± gives the standard deviation. This is a selection; strong and weak results do not stand in their true shares. Many entries were measured with a wide error.
# System: EfPiwi piRISC loaded with piRNA #1 (26 nt)
# Test: pre-steady-state target cleavage rate (min^-1); guide: piRNA #1 5'p-UGAGGUAGUAGGUUGUAUAGUAUCCA; MIWI and MILI are mouse PIWI proteins and EfPiwi is from a freshwater sponge; tags in brackets are library labels; higher = faster piRNA-guided slicing of the target
# Details: auxiliary factor: 500 nM Ephydatia muelleri Gtsf1
# Method in brief: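 For Cleave-'n-Seq, a transcribed, DNA-blocked target RNA library […] met 1 nM active affinity-purified piRISC with one synthetic guide at 33 °C for 0–8 or 0–960 min in HEPES–potassium acetate buffer, with or without 500 nM GTSF1 partner protein. Uncleaved targets were sequenced and normalised to depth and weakly complementary targets, with three trials pooled and k3 capped at 0.0001 min^-1. A burst-and-steady-state fit supplied the pre-steady-state cleavage rate.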
row,Sequence,pre-steady-state target cleavage rate
1,GGAGACCUAUGUAUACAGCCUACUACCUCA,0.00122 ± 0.0058
2,GGAGACGAUACUUUACAACCAACUACCUCA,0.00358 ± 0.0022
3,GGAGACCUUACAAUACAACCUACUAGCUCA,0.00157 ± 0.005
4,GGAGUGGAUACUAUACAACGUAGUACCUCA,0.00292 ± 0.0011
5,GGAGACGAUACAAUACAACCUACUACGUCA,0.00361 ± 0.0032
6,GGAGACCUAUCUAUACUACCUACUUCCUCA,0.0014 ± 0.0055
7,GGAGACCUAUCUAUACAACCUACUAUCUCA,0.00591 ± 0.004
8,GGAGACCUAUCUAUAUAACCUACUACCUCA,0.00312 ± 0.0033
9,GGAGACCUAACUUUACAACCUACAACCUCA,0.000841 ± 0.0097
10,GGAGACCAAUACUAUACAACCUACUACCUCA,0.5 ± 0.18
11,GGAGACCUAACUAUACAACCUACUACAUCA,0.0146 ± 0.0083
12,GGAGACGAUACUAUACAAGCAACUACCUCA,0.0046 ± 0.003
13,GGAGUGGAUACUAUAGAACGUACUACCUCA,0.00156 ± 0.0015
14,GGAGACCUUACUAUACAACCUACUAUCCUCA,0.00296 ± 0.0038
15,GGAGACCAUACUAUAGAACCUACUACCUGA,0.00135 ± 0.0022
16,GGAGACCUUACUAUACAAGCUAGUACCUCA,0.00242 ± 0.0031
17,GGAGACCUAUGAUAUGAAACCUACUACCUCA,0.000642 ± 0.0078
18,GGAGAGGUUUCUAUACAACCUACUACCUCA,0.00427 ± 0.004
19,GGAGACCUUACUAUUCAACCUACUAGCUCA,0.000437 ± 0.0075
20,GGAGACCUAACUAUACAACCCACUACCUCA,0.00404 ± 0.0036

# Shown as tab-separated lines: entries from further up
row	Sequence	pre-steady-state target cleavage rate
9	GGAGACCUAACUUUACAACCUACAACCUCA	0.000841 ± 0.0097
12	GGAGACGAUACUAUACAAGCAACUACCUCA	0.0046 ± 0.003

# The listing continues.

row,Sequence,pre-steady-state target cleavage rate
1,GGAGACCUAUCUAUACAACCUACUUCGUCA,0.00161 ± 0.0053
2,GGAGACCUAUCUUUACAACGUACUACCUCA,0.0015 ± 0.0052
3,GGAGUGGAUACUAUUACAACCUACUACCUCA,0.131 ± 0.047
4,GGAGACCUAUCUAAACAAGCUACUACCUCA,0.00043 ± 0.0068
5,GGAGACCUUACUAUACAACCUACAAGCUCA,0.000919 ± 0.0087
6,GGAGACCUAACUAUACAACCUACUACGACA,0.00325 ± 0.0029
7,GGAGAGCAUACUAUACAACCUACUACCUGA,0.00603 ± 0.0027
8,GGAGACCUAUCAAUACAACCUACUACCUCA,0.00612 ± 0.0034
9,GGAGACCUAUCUUUACAACCUUCUACCUCA,0.00103 ± 0.0055
10,GGAGACCUAUGUAUACAUCCUACAACCUCA,0.000266 ± 0.0099
11,GGAGACCUUACUAUACAACGUACUACGUCA,0.00267 ± 0.0018
12,GGAGACCAUACUAUACAACCUACUAGCUCA,0.00491 ± 0.0023
13,GGAGAGGAUACUAUAGUACCUACUACCUCA,0.00261 ± 0.004
14,GGAGUGGAUACUAUAGAACCUAGUACCUCA,0.00157 ± 0.0017
15,GGAGACCUAUCUAUACAACCUACGACCUCA,0.0023 ± 0.0047
16,GGAGACCAUAGUAUACAACCUACUACCACA,0.00262 ± 0.0041
17,GGAGACGAUACUAUUCAACCUACAACCUCA,0.0024 ± 0.0017
18,GGAGACGAUUCUAUACAACGUACUACCUCA,0.00356 ± 0.0021
19,GGAGACCUAACUAUACAACCUAUUACCUCA,0.00738 ± 0.0043
20,GGAGACCUAACAAUACAACCUACUACCACA,0.00114 ± 0.0093
